Source: publication doi:10.1101/358663
No constants are given. Whether binding was seen depends on the method and setting. In cells and extracts the contact can be indirect. Binding can be weak; no strength is given.

Molecular target: Pseudomonas aeruginosa FtsW (Pseudomonas aeruginosa) (UniProt Q9HW00)
Test: co-purification on anti-FLAG affinity resin

For “Pseudomonas aeruginosa PBP3 (from UniProt G3XD46 1-579) (enzyme)”, the binding was “binds”.
